Assay results as given in the supplement of paper PMC10849652.
Some of the results follow.

Chains of the proteins cited; added tags and fusions are not shown. Lines headed by an entry give the natural chain unless they say otherwise; changes in a name come on top.
UniProt Q8IWT0: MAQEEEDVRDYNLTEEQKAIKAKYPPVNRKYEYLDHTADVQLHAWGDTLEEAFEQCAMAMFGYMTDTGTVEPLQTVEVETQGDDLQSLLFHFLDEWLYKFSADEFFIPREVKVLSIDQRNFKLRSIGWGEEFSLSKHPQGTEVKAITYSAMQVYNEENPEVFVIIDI
UniProt Q7Z2W4: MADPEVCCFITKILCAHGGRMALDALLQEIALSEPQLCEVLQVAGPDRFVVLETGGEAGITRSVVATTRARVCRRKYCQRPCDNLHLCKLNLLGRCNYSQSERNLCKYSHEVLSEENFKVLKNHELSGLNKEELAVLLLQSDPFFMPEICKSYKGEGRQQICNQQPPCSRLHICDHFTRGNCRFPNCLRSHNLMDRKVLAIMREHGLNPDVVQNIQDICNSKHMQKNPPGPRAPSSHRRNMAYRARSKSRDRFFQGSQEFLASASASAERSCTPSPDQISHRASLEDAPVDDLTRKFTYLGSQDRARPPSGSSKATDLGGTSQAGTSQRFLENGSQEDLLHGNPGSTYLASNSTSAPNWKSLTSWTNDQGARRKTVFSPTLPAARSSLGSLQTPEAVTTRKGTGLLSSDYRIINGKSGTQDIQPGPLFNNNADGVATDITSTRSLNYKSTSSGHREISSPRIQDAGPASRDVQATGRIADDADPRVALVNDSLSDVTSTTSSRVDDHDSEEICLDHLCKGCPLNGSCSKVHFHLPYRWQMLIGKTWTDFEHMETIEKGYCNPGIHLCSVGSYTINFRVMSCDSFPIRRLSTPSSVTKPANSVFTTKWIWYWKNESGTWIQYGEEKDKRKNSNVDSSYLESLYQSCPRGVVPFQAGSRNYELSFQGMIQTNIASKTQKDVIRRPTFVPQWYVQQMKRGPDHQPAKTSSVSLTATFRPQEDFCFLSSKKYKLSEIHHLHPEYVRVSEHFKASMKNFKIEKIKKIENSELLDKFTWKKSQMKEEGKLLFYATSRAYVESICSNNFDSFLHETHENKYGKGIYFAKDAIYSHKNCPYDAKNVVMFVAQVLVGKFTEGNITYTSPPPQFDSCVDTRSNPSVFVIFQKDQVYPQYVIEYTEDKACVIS
UniProt O14980, whole entry, looked up: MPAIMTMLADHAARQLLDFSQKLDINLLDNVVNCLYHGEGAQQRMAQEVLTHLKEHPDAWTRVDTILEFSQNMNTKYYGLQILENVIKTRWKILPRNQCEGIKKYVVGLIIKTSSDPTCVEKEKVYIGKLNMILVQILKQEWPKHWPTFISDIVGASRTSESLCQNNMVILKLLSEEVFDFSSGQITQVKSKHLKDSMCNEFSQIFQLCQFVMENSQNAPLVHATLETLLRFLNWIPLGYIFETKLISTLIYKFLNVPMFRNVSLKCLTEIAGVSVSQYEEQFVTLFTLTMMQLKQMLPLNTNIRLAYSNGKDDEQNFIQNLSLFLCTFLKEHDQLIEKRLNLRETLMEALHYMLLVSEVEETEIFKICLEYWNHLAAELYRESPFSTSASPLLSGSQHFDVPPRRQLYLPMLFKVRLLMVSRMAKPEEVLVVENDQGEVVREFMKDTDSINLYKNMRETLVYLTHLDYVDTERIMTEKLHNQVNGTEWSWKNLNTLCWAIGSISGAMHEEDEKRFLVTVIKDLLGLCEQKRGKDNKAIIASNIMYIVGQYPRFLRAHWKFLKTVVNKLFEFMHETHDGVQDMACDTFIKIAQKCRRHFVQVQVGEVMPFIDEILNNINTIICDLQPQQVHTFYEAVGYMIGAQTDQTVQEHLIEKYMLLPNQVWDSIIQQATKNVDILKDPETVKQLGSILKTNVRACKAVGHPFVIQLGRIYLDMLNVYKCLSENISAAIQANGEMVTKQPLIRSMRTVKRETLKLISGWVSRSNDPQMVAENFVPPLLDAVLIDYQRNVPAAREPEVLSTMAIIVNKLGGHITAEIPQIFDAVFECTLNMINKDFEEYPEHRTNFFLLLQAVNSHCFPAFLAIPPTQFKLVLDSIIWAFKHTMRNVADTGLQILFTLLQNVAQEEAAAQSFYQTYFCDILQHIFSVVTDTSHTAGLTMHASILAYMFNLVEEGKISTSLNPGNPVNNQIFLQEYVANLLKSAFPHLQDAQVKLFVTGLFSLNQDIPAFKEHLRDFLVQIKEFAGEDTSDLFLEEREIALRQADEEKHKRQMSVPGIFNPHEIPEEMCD
UniProt Q8N5A5: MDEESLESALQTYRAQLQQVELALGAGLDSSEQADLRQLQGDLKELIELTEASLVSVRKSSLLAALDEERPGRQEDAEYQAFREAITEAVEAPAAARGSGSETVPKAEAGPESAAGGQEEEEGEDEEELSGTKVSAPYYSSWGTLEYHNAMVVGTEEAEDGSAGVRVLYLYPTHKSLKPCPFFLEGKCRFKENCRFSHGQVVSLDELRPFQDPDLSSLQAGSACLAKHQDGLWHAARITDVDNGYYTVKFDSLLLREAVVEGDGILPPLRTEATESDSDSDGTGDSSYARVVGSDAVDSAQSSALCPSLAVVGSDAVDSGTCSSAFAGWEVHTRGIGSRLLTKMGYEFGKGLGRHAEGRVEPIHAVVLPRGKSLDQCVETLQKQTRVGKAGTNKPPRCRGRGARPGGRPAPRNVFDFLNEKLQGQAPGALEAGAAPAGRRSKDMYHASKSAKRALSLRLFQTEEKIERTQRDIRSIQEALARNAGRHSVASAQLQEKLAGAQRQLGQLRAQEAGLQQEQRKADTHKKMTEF
UniProt Q5T200: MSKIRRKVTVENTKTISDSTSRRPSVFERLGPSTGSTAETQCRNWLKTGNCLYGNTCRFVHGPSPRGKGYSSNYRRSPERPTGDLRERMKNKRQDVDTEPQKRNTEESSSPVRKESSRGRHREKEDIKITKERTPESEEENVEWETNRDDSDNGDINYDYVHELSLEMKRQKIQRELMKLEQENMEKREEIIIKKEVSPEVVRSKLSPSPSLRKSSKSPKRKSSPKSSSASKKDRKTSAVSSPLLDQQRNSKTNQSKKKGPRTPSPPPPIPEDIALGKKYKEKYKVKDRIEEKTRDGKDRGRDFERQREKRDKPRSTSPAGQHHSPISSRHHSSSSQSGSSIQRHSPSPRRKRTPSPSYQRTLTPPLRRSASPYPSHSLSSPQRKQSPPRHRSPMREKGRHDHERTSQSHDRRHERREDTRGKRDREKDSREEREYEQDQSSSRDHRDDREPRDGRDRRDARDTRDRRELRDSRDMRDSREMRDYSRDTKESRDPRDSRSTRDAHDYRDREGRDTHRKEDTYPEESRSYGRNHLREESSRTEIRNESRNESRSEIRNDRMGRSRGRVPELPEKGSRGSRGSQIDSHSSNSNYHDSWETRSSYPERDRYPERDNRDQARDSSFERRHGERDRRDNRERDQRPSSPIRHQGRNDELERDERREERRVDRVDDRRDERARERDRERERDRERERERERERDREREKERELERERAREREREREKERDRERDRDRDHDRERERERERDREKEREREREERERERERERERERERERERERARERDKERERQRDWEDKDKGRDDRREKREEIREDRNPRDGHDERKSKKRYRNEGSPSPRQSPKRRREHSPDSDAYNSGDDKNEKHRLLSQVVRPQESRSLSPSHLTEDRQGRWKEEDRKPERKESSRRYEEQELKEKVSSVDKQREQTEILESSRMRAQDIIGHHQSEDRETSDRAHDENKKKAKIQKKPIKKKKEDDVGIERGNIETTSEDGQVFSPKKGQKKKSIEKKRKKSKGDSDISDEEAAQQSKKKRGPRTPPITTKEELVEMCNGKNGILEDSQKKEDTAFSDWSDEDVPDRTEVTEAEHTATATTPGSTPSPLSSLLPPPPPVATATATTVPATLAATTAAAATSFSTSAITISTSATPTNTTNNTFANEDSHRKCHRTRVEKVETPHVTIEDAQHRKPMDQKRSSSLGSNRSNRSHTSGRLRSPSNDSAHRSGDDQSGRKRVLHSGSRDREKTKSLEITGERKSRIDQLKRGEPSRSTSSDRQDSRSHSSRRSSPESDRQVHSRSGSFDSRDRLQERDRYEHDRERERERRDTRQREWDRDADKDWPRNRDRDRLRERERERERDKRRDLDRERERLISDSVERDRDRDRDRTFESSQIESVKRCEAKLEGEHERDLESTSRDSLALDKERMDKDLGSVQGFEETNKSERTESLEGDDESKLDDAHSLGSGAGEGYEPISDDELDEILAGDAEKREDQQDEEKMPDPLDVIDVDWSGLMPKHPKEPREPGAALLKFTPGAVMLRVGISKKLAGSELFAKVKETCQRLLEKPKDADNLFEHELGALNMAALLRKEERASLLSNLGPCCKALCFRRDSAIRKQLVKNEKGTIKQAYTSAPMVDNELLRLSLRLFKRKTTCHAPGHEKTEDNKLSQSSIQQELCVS
UniProt O60293: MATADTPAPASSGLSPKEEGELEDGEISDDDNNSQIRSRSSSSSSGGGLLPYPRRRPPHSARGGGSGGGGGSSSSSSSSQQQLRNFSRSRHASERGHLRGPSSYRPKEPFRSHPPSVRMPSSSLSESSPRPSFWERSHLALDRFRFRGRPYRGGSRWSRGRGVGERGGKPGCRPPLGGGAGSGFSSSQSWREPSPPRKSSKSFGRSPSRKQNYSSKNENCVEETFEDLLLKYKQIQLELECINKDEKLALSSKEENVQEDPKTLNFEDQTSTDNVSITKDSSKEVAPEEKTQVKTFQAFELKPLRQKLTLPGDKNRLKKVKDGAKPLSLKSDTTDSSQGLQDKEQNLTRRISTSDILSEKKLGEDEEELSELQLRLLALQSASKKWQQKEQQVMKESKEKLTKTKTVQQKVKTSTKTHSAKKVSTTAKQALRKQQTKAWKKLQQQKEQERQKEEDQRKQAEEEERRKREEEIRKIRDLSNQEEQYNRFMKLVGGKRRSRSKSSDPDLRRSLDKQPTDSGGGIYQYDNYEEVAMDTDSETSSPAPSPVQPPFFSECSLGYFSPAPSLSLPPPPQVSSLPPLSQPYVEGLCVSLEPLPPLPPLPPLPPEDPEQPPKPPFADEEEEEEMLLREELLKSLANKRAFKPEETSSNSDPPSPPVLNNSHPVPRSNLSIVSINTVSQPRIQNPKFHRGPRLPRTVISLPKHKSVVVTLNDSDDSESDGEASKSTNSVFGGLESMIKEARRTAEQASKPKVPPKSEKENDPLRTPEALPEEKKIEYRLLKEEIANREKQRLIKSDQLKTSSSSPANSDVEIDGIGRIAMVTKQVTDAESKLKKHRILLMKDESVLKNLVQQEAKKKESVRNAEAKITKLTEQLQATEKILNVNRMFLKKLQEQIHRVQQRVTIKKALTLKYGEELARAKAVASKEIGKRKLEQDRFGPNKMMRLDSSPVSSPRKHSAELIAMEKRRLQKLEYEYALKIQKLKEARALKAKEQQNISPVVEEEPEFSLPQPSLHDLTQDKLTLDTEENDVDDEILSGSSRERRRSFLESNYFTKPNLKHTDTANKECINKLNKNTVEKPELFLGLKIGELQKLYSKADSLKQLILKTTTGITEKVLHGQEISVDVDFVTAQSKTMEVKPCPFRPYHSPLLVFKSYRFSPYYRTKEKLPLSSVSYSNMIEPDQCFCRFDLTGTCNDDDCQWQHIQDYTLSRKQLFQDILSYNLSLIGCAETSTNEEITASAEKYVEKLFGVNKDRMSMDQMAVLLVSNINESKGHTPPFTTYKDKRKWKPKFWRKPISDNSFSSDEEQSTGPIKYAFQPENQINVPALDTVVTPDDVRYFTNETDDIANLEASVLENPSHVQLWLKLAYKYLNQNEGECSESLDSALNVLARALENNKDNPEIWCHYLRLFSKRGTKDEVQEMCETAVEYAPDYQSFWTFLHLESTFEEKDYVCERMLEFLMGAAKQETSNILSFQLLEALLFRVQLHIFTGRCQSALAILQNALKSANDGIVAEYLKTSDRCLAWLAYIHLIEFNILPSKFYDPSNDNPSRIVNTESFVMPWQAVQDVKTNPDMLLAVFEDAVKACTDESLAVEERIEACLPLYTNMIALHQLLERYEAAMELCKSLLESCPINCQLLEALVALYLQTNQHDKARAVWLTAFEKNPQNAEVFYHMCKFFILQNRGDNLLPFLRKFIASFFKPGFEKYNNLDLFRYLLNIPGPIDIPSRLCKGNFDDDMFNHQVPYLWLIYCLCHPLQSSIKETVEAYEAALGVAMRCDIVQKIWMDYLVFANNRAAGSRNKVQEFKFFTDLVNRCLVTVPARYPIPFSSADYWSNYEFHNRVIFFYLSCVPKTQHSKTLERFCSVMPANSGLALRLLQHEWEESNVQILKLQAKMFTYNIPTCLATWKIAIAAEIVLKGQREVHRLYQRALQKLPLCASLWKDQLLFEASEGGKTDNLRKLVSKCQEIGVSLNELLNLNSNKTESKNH
UniProt Q969M3: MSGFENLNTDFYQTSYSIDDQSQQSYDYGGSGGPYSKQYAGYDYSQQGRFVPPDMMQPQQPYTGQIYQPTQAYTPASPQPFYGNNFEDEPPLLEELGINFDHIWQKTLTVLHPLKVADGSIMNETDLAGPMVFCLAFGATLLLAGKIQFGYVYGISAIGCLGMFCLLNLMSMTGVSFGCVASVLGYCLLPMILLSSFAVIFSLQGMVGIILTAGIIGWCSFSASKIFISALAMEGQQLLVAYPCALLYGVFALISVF

Columns and labels:
Assay in all cases: log2 fold change, soluble protein after heating vs DMSO (PISA); higher = thermal stabilisation; K562 lysate, 10 uM; active = over 0.2 and 3.5 SD of the protein, either way, in both replicates (recomputed)
erlotinib = compound: C#Cc1cccc(Nc2ncnc3cc(OCCOC)c(OCCOC)cc23)c1 [erlotinib]
Procedure, shortened: (§1)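 Quantification was by TMTpro 16plex LC-MS/MS with equalised channel sums, applied to the supernatant after 21,000xg for 90 min. Samples were crude K562 extract at 1 mg/mL protein in PBS pH 7.4 with 1 mM MgCl2, treated with 10 μM compound for 30 min, heated for 3 min across 48°C-58°C, pooled and brought to 0.5% NP-40 at 4°C. Values are log-two fold changes in thermal stability relative to solvent controls, from duplicates.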

[1] = compound: C/C(=N\NC(=O)C1=CC(=CC=C1)S(=O)(=O)N2CCOCC2)/C3=C(C=CC(=C3)Cl)O
Procedure, shortened: as §1

[2] = compound: C1=CC(=CC=C1C2=NC3=C(N2)C=C(C=C3)C(=O)N)OC4=CC=C(C=C4)Cl
Procedure, shortened: as §1

[3] = compound: C1=CC2=C(C=CC(=C2)/C=C\3/C(=O)NC(=NCC4=CC=CS4)S3)N=C1
Procedure, shortened: as §1

[4] = compound: C1=CC2=NC=CN=C2C=C1/C=C/3\C(=O)NC(=O)S3
Procedure, shortened: as §1

[5] = compound: C1=CC=C(C=C1)C2=NC(=C(N2)C3=CC=NC=C3)C4=CC(=C(C=C4)Cl)O
Procedure, shortened: as §1

[6] = compound: C1=CC=C2C(=C1)C3=NNC4=CC=CC(=C43)C2=O
Procedure, shortened: as §1

[7] = compound: C1CCN(C1)C(=O)NC2=CC=CC(=C2)NC3=NC=C(C(=N3)NCCC4=CN=CN4)Br
Procedure, shortened: as §1

[8] = compound: C1CN(CCC1(CC2=CC=C(C=C2)Cl)N)C3=NC=NC4=C3C=CN4
Procedure, shortened: as §1

IRAK-1-4 Inhibitor I = compound: C1COCCN1CCN2C3=CC=CC=C3N=C2NC(=O)C4=CC(=CC=C4)[N+](=O)[O-] [IRAK-1-4 Inhibitor I]
Procedure, shortened: as §1

ibrutinib = compound: C=CC(=O)N1CCC[C@@H](n2nc(-c3ccc(Oc4ccccc4)cc3)c3c(N)ncnc32)C1 [ibrutinib]
Procedure, shortened: as §1

[9] = compound: CC(=O)c1cnc2ccc(-c3cc(Cl)c(O)c(Cl)c3)nc2c1N[C@H]1CC[C@H](CN(C)C)CC1
Procedure, shortened: as §1

ralimetinib = compound: CC(C)(C)Cn1c(N)nc2ccc(-c3[nH]c(C(C)(C)C)nc3-c3ccc(F)cc3)nc21 [ralimetinib]
Procedure, shortened: as §1

[10] = compound: CC(C)(O)CC(=O)NCCn1ccc2ncnc(Nc3ccc(Oc4cccc(C(F)(F)F)c4)c(Cl)c3)c21
Procedure, shortened: as §1

[11] = compound: CC(C)C1=C2N=C(C=C(N2N=C1)NCC3=CC=CC=C3)NCCCCCCN
Procedure, shortened: as §1

[12] = compound: CC1=C(C(CC(=O)N1)C2=CC=C(C=C2)C(F)(F)F)C(=O)NC3=C(C=C4C(=C3)C=NN4)F
Procedure, shortened: as §1

[13] = compound: CC1=C(C2=C(C=C1)C(=O)C3=CC=CC=C3N2CCCN)C
Procedure, shortened: as §1

[14] = compound: CC1=C(C=C(C=C1)NC(=O)C2=CC(=CC=C2)C(C)(C)C#N)NC3=CC4=C(C=C3)N=CN(C4=O)C
Procedure, shortened: as §1

[15] = compound: CC1=C(C=C(C=C1)NC(=O)C2=CC(=CC=C2)N(C)C)NC(=O)C3=CC=C(C=C3)O
Procedure, shortened: as §1

[16] = compound: CC1=CC=C(C=C1)SC2=C3C=C(SC3=CN=C2)C(=O)N
Procedure, shortened: as §1

Measured: log2 fold change

ZBTB8OS (UniProt Q8IWT0)
inactive: erlotinib -0.06 | [1] 0.031 | [2] -0.056 | [3] 0.01 | [4] 0.008 | [5] -0.019 | [6] 0.016 | [7] 0.05 | [8] 0.024 | IRAK-1-4 Inhibitor I -0.001 | ibrutinib 0.049 | [9] 0.035 | ralimetinib 0.024 | [10] -0.057 | [11] -0.017 | [12] -0.026 | [13] 0.035 | [14] 0.01 | [15] -0.019 | [16] 0.028

ZCCHC17 (UniProt Q9NP64)
inactive: erlotinib -0.003 | [1] -0.001 | [2] -0.135 | [3] -0.186 | [4] -0.035 | [5] -0.01 | [6] 0.165 | [7] 0.171 | [8] -0.024 | IRAK-1-4 Inhibitor I -0.02 | ibrutinib 0.017 | [9] -0.021 | ralimetinib 0.013 | [10] -0.039 | [11] 0.025 | [12] 0.023 | [13] 0.015 | [14] 0.052 | [15] -0.038 | [16] -0.034

ZDHHC3 isoform 2 (UniProt Q9NYG2)
inactive: erlotinib 0.009 | [1] 0.082 | [2] -0.212 | [3] 0.018 | [4] 0.017 | [5] -0.035 | [6] -0.069 | [7] -0.013 | [8] 0.004 | IRAK-1-4 Inhibitor I 0.079 | ibrutinib 0.055 | [9] 0.043 | ralimetinib 0 | [10] -0.121 | [11] -0.043 | [12] 0.082 | [13] 0.152 | [14] 0.051 | [15] 0.03 | [16] 0

ZC3HAV1 (UniProt Q7Z2W4)
inactive: erlotinib 0.026 | [1] -0.041 | [2] 0.023 | [3] 0.018 | [4] -0.016 | [5] -0.001 | [6] -0.015 | [7] -0.024 | [8] -0.002 | IRAK-1-4 Inhibitor I 0.02 | ibrutinib 0.03 | [9] -0.013 | ralimetinib -0.011 | [10] 0.024 | [11] 0.003 | [12] 0.027 | [13] -0.002 | [14] 0.022 | [15] 0.022 | [16] -0.017

XRCC1 (UniProt P18887)
inactive: erlotinib -0.012 | [1] 0.029 | [2] -0.063 | [3] 0.023 | [4] -0.026 | [5] 0 | [6] -0.01 | [7] -0.028 | [8] -0.014 | IRAK-1-4 Inhibitor I -0.006 | ibrutinib 0.038 | [9] 0 | ralimetinib 0.028 | [10] 0 | [11] -0.005 | [12] 0.015 | [13] 0.081 | [14] -0.011 | [15] -0.002 | [16] 0

XPR1 (UniProt Q9UBH6)
inactive: erlotinib 0.043 | [1] 0.049 | [2] 0.019 | [3] 0.081 | [4] -0.051 | [5] 0.049 | [6] 0.014 | [7] -0.042 | [8] -0.024 | IRAK-1-4 Inhibitor I 0.012 | ibrutinib 0.001 | [9] 0.092 | ralimetinib 0.048 | [10] -0.105 | [11] -0.023 | [12] 0.012 | [13] 0.096 | [14] -0.016 | [15] 0.002 | [16] -0.007

ZER1 (UniProt Q7Z7L7)
inactive: erlotinib 0.086 | [1] 0.016 | [2] -0.009 | [3] -0.037 | [4] -0.039 | [5] 0.02 | [6] -0.047 | [7] -0.025 | [8] 0.092 | IRAK-1-4 Inhibitor I -0.059 | ibrutinib 0.016 | [9] -0.058 | ralimetinib 0.088 | [10] -0.117 | [11] 0.026 | [12] 0.034 | [13] -0.036 | [14] 0.02 | [15] 0.081 | [16] 0.041

XPO1 (UniProt O14980)
inactive: erlotinib 0.021 | [1] 0.025 | [2] -0.015 | [3] 0.017 | [4] 0.026 | [5] -0.031 | [6] -0.045 | [7] -0.005 | [8] 0.033 | IRAK-1-4 Inhibitor I 0.016 | ibrutinib -0.01 | [9] 0.008 | ralimetinib 0.029 | [10] -0.037 | [11] -0.01 | [12] -0.007 | [13] 0.035 | [14] -0.004 | [15] 0.02 | [16] 0.019

YOD1 (UniProt Q5VVQ6)
inactive: erlotinib 0.026 | [1] 0.024 | [2] -0.015 | [3] 0.001 | [4] -0.029 | [5] -0.026 | [6] 0.021 | [7] -0.049 | [8] 0.009 | IRAK-1-4 Inhibitor I 0.001 | ibrutinib 0.114 | [9] -0.009 | ralimetinib 0.011 | [10] -0.043 | [11] -0.002 | [12] 0.014 | [13] -0.006 | [14] 0.002 | [15] 0.006 | [16] -0.006

YY1 (UniProt P25490)
inactive: erlotinib -0.03 | [1] -0.03 | [2] 0 | [3] 0.002 | [4] 0.019 | [5] 0.009 | [6] 0.032 | [7] 0.045 | [8] -0.047 | IRAK-1-4 Inhibitor I -0.021 | ibrutinib 0.005 | [9] 0.056 | ralimetinib 0.017 | [10] 0.043 | [11] -0.035 | [12] 0.025 | [13] 0.022 | [14] -0.012 | [15] -0.008 | [16] 0.029

YBX3 isoform 2 (UniProt P16989)
inactive: erlotinib -0.038 | [1] -0.069 | [2] 0.008 | [3] 0.049 | [4] -0.033 | [5] -0.081 | [6] -0.027 | [7] -0.003 | [8] -0.01 | IRAK-1-4 Inhibitor I -0.013 | ibrutinib -0.14 | [9] 0.008 | ralimetinib 0.026 | [10] -0.05 | [11] -0.005 | [12] 0.051 | [13] -0.046 | [14] 0.024 | [15] 0.06 | [16] -0.003

Copied from above (2 entries):
ZC3HAV1 (UniProt Q7Z2W4)
inactive: erlotinib 0.026 | [1] -0.041 | [2] 0.023 | [3] 0.018 | [4] -0.016 | [5] -0.001 | [6] -0.015 | [7] -0.024 | [8] -0.002 | IRAK-1-4 Inhibitor I 0.02 | ibrutinib 0.03 | [9] -0.013 | ralimetinib -0.011 | [10] 0.024 | [11] 0.003 | [12] 0.027 | [13] -0.002 | [14] 0.022 | [15] 0.022 | [16] -0.017

XRCC1 (UniProt P18887)
inactive: erlotinib -0.012 | [1] 0.029 | [2] -0.063 | [3] 0.023 | [4] -0.026 | [5] 0 | [6] -0.01 | [7] -0.028 | [8] -0.014 | IRAK-1-4 Inhibitor I -0.006 | ibrutinib 0.038 | [9] 0 | ralimetinib 0.028 | [10] 0 | [11] -0.005 | [12] 0.015 | [13] 0.081 | [14] -0.011 | [15] -0.002 | [16] 0

Remaining list, next part:

ZGPAT (UniProt Q8N5A5)
inactive: erlotinib -0.03 | [1] -1.96 | [2] -0.04 | [3] -0.135 | [4] 0.021 | [5] 0.088 | [6] 0.124 | [7] 0.006 | [8] -0.107 | IRAK-1-4 Inhibitor I 0.002 | ibrutinib 0.066 | [9] -0.114 | ralimetinib 0 | [10] -0.017 | [11] 0.013 | [12] -0.013 | [13] 0.019 | [14] 0.02 | [15] 0.001 | [16] -0.048

ZC3H13 (UniProt Q5T200)
inactive: erlotinib 0.081 | [1] 0.003 | [2] 0.034 | [3] -0.027 | [4] -0.071 | [5] 0.075 | [6] -0.045 | [7] -0.016 | [8] -0.043 | IRAK-1-4 Inhibitor I 0.007 | ibrutinib 0.046 | [9] 0.009 | ralimetinib -0.003 | [10] -0.072 | [11] 0.058 | [12] -0.101 | [13] 0.046 | [14] 0.08 | [15] -0.01 | [16] -0.022

XPO4 (UniProt Q9C0E2)
inactive: erlotinib 0.006 | [1] 0 | [2] 0.009 | [3] -0.024 | [4] -0.014 | [5] -0.015 | [6] -0.007 | [7] 0.013 | [8] 0.002 | IRAK-1-4 Inhibitor I 0 | ibrutinib 0.012 | [9] 0.02 | ralimetinib 0.053 | [10] 0.004 | [11] -0.024 | [12] -0.013 | [13] 0.014 | [14] -0.011 | [15] 0.031 | [16] 0.004

ZFC3H1 (UniProt O60293)
inactive: erlotinib 0.073 | [1] 0.249 | [2] 0.033 | [3] -0.069 | [4] -0.066 | [5] 0 | [6] -0.082 | [7] -0.047 | [8] -0.115 | IRAK-1-4 Inhibitor I 0.012 | ibrutinib -0.019 | [9] 0.021 | ralimetinib 0.011 | [10] -0.023 | [11] -0.054 | [12] -0.002 | [13] -0.002 | [14] -0.034 | [15] -0.014 | [16] 0.018

YIPF5 isoform 3 (UniProt Q969M3)
inactive: erlotinib -0.047 | [1] 0.089 | [2] -0.036 | [3] -0.067 | [4] -0.019 | [5] -0.065 | [6] -0.033 | [7] 0.004 | [8] -0.016 | IRAK-1-4 Inhibitor I 0.032 | ibrutinib 0.009 | [9] 0.01 | ralimetinib -0.069 | [10] -0.075 | [11] 0.048 | [12] 0.001 | [13] 0.047 | [14] -0.027 | [15] 0.014 | [16] 0.023
